Some of the results follow. For some of these results: Construct or isoform of the protein are uncertain.
Key:
Assay in all cases: protein microarray (ProtoArray v5.0), streptavidin-Alexa Fluor 647
Details in all cases: 3'-biotin; 20 mM Tris (pH 7.5), 5 mM MgCl2, 100 mM KCl, 0.1% Tween-20, A/T-rich and random oligonucleotide blockers; temperature not stated; high values mean tight binding
TSR2 (human) = test system: TSR2 (human)
TTC1 (human) = test system: TTC1 (human)
TTC32 (human) = test system: TTC32 (human)
TTC8 (human) = test system: TTC8 (human)
TTLL7 = target: T1, TTLL7 (UniProt Q6ZT98)
T1 sequence: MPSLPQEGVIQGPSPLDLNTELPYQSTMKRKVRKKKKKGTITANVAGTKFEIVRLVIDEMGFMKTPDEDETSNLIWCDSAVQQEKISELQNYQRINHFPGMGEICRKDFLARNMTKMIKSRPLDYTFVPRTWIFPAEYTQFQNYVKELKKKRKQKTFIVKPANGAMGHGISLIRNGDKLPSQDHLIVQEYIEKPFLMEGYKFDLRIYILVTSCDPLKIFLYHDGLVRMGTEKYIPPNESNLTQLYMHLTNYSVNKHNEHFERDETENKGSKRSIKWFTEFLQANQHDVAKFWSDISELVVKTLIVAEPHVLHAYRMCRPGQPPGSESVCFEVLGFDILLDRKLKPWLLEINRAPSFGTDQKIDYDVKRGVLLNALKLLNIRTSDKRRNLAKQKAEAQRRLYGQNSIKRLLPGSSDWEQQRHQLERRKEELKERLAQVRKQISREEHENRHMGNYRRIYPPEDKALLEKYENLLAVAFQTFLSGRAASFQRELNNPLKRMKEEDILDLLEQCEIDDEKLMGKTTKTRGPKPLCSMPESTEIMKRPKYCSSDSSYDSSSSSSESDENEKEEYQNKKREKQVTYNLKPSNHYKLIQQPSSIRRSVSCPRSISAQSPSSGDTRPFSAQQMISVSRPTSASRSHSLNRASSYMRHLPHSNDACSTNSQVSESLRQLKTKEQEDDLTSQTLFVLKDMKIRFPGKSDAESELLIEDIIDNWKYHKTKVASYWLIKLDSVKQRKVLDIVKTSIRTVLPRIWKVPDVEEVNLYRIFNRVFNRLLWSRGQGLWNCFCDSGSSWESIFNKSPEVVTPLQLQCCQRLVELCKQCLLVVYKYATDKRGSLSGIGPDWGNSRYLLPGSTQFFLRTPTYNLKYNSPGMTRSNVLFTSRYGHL

TTR (human) = test system: TTR (human)
TTYH2 (human) = test system: TTYH2 (human)
TUBA3E (human) = test system: TUBA3E (human)
TUBB (human) = test system: TUBB (human)
TXN2 (human) = test system: TXN2 (human)

## GGTGACAGGGGTATGGGGAGGGG [G4-2 biotinylated (Ct1)]
TSR2 (human)
  binding signal: -0.395 z-score
TTC1 (human)
  binding signal: -0.378 z-score
TTC32 (human)
  binding signal: -0.37 z-score
TTC8 (human)
  binding signal: -0.391 z-score
TTLL7
  binding signal: 4.63 z-score
TTR (human)
  binding signal: -0.36 z-score
TTYH2 (human)
  binding signal: -0.387 z-score
TUBA3E (human)
  binding signal: -0.391 z-score
TUBB (human)
  binding signal: -0.376 z-score
TXN2 (human)
  binding signal: -0.372 z-score

Source: PMC5996148
